The source of these data is PubChem BioAssay AID493014 (National Center for Advancing Translational Sciences (NCATS), 2011).

A short description of this assay: qHTS Assay to Find Inhibitors of Chronic Active B-Cell Receptor Signaling. The following applies: ABC-DLBCL IkBa-CBG/CBR reporter, luminescence ratio (green luciferase fused to IkBa over red control in TMD8 lymphoma cells), 4 h. The gist of the method:
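TMD8 ABC-DLBCL cells carrying doxycycline-inducible green luciferase fused to IkappaBalpha plus unfused red luciferase were exposed to compounds (up to 46 uM) for 4 hrs at 37C. Activity came from the overlap-corrected green/red luminescence ratio.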
On the technique in general: qHTS replaces the single test concentration by a dilution series.

The mark [1] stands for this setting: measured here: IkBa-CBG green luminescence.
Where [2] appears, read: measured here: CBR red luminescence, cell number.

The other results are listed elsewhere or left out. Shown are side measurements of this screen, not its main read-out; they come without a call. The list favours compounds with an active or inconclusive main result. Potencies come from curve fits of mixed quality, noted in brackets.

For the compound `COc1ccc(/C=C/C(=O)NC(=S)N2CCSCC2)cc1`, the AC50 (commonly the midpoint of the concentration-response curve, whichever way the signal moves) under setting [1] is 35.5 µM [falling, single point].
In the case of `O=C(/C=C/c1ccc2c(c1)OCCCO2)c1ccc2ccccc2c1O`, under setting [2], the concentration at half-maximal activity (AC50) is 6.51 µM [rising, partial curve].
The same measure, in the same setting: then `C/C(=N\NC(=O)c1ccccc1O)c1ccc(NC(=O)c2ccccc2)cc1`, with 3.16 µM [falling, full curve].
In the case of `Cc1ccccc1OCCc1c(C)[nH]c(=S)[nH]c1=O`, the half-maximal activity concentration (AC50) under setting [2] is 3.98 µM [rising, full curve] and the AC50 under setting [1] was 10 µM [falling, partial curve].
`COc1cc(/C=N/N=C2/C(=O)Nc3ccccc32)ccc1O`: under setting [2], the AC50 is 29.1 µM [falling, single point].
On the same count and under the same terms, the value for `CO/N=C/c1cn(-c2ccc(Cl)cc2)nn1` was 35.5 µM [rising, single point].
The same measure, in the same setting: then `O=C1CN(c2ccccc2)C(=S)N1C(=O)c1ccc(Br)cc1`, with 31.6 µM [falling, single point]; and `COc1ccc(C2N(c3ccc4c(c3)OCCO4)C(=O)C2(F)F)cc1OC` (centres undefined), with 35.5 µM [rising, partial curve, poor fit]; and `COc1ccccc1-c1nnc(SCC(=O)N2CCCCC2)o1`, with 35.5 µM [falling, single point].
With `Clc1ccc(-c2nn3c(C4COc5ccccc5O4)nnc3s2)cc1` (centres undefined), under setting [2], the AC50 is 2.51 µM [rising, full curve, poor fit].
The same measure, in the same setting: the value for `COc1ccccc1NC(=O)NCCCCc1ccccc1` was 12.6 µM [falling, single point]; that for `COc1cc2c(cc1OC)CN(C(=O)Nc1ccccc1)CC2` was 8.91 µM [falling, partial curve]; that for `O=c1c2cc(Br)ccc2nc(-c2ccc(Cl)cc2)n1O` was 3.16 µM [falling, partial curve].
On the same count and under the same terms, then `Cc1ccccc1OCC(O)CNC1CCC(NCC(O)COc2ccccc2C)CC1` (centres undefined), with 2.51 µM [falling, partial curve, poor fit]; and `CCC(C)Nc1nc(N)c([N+](=O)[O-])c(NCc2ccccc2)n1` (centres undefined), with 2.51 µM [rising, full curve, poor fit]; and `COc1ccc(NC(=O)C2CCOC(C)(C)C2)cc1` (centres undefined), with 0.891 µM [rising, full curve, poor fit].
Same read-out and setting: then `O=C(Nc1nc(-c2cccnc2)cs1)c1ccccc1Cl`, with 0.501 µM [falling, full curve, poor fit]; and `COc1ccc(-c2nc3sc(CCNC(=O)c4ccco4)c(C)n3n2)cc1`, with 6.31 µM [rising, full curve].
As for `Nc1nnc(-c2cc3c(ccc4ccccc43)oc2=O)s1`, the AC50 under setting [2] is 35.5 µM [falling, single point].
Still for that read-out and setting: then `Cn1c(Cn2cnc3ccccc32)nnc1SCC(=O)CC(=O)Nc1ccccc1`, with 35.5 µM [falling, single point]; and `COc1ccc(/C=C/C(=O)OC(C)C(=O)c2ccccc2)cc1OC` (centres undefined), with 23.1 µM [rising, single point].
Regarding `CC(C)(C)c1ccc(C(=O)Nc2ccc(S(N)(=O)=O)cc2)cc1`, the AC50 by setting is: under setting [2], 0.891 µM [rising, full curve, poor fit]; under setting [1], 15.8 µM [falling, partial curve, poor fit].
In the case of `COc1ccc(Cn2nnnc2CN(Cc2cc3cc(C)ccc3[nH]c2=O)C2CCCC2)cc1`, the AC50 under setting [2] is 0.651 µM [rising, full curve, poor fit].
`COc1cc2cnc(-c3ccccc3)cc2cc1OC`: the AC50 runs as follows: under setting [2], 0.259 µM [rising, full curve]; under setting [1], 23.1 µM [falling, partial curve, poor fit].
`C=CCSc1nnc2c(n1)OC(c1cccnc1)Nc1ccccc1-2` (centres undefined): the half-maximal activity concentration (AC50) under setting [2] was 35.5 µM [falling, single point].
Still for that read-out and setting: then `COc1ccc(CC(=O)Nc2ccccc2C(=O)N2CCOCC2)cc1`, with 29.1 µM [rising, single point].
Same read-out and setting: then `COc1ccccc1-n1cnnc1SCC(=O)Nc1ccccc1`, with 22.4 µM [falling, single point]; and `COc1ccc(-c2cc(-c3ccccc3)n[nH]2)c(O)c1`, with 12.6 µM [falling, partial curve, poor fit]; and `CCn1c(SCC(=O)O)nnc1-c1cc2c(C)nn(-c3ccccc3)c2s1`, with 3.98 µM [falling, partial curve].
On the same count and under the same terms, the value for `COc1ccc(-c2ccc(SCC(=O)NCC3CCCO3)nn2)cc1OC` (centres undefined) was 8.91 µM [rising, partial curve].
As for `CC1CCC2C(=O)N(c3ccc(C(=O)Oc4cccc5cccnc45)cc3)C(=O)C2C1` (centres undefined), the AC50 reads like this: under setting [2], 29.1 µM [falling, single point]; under setting [1], 3.26 µM [falling, partial curve, poor fit].
Consider `CSc1ccccc1C(=O)Nc1ccc2c(c1)OCO2`, for which the AC50 under setting [2] is 25.1 µM [falling, partial curve, poor fit].
On the same count and under the same terms, the value for `O=C(CCC1CCCC1)N1CCC(N2CCN(c3ccccc3)CC2)CC1` was 0.00461 µM [falling, full curve, poor fit]; that for `N=C(N)SCc1cn(-c2ccccc2)nc1-c1ccc(Br)cc1` was 35.5 µM [falling, single point].
On the same count and under the same terms, then `O=C(Nc1ccccc1N1CCN(c2ccccc2)CC1)c1cccc(F)c1`, with 29.1 µM [rising, single point]; and `O=c1c2ccccc2nnn1COc1ccc(F)cc1Cl`, with 11.2 µM [falling, partial curve, poor fit].
Regarding `Cc1c(CCC(=O)NCCCC(=O)O)c(=O)oc2cc3oc4c(c3cc12)CCCC4`, the AC50 under setting [2] is 7.08 µM [rising, partial curve] and the AC50 under setting [1] is 7.94 µM [falling, partial curve].
With `O=C(c1nc2nc(-c3cccs3)cc(C(F)(F)F)n2n1)N1CCN(Cc2ccccc2)CC1`, the AC50 under setting [2] was 0.517 µM [rising, full curve, poor fit].
On the same count and under the same terms, the value for `C/C(=N\NC(=O)c1ccc(OC2CCCC2)cc1)c1ccc(O)cc1` was 1.12 µM [falling, full curve]; that for `COc1ccc(C(=O)C2CCCN(S(=O)(=O)c3ccccc3F)C2)c(C)c1` (centres undefined) was 25.1 µM [falling, single point].
`Cc1[nH]c(=O)[nH]c(=O)c1S(=O)(=O)N1CCCC(C(=O)NCCc2ccccc2)C1` (centres undefined): the AC50 under setting [2] is 18.4 µM [rising, single point].
For `Oc1c(C(c2ccccn2)N2CCOCC2)ccc2cccnc12` (centres undefined), the AC50 under setting [1] was 3.16 µM [falling, partial curve, poor fit].
As to `Clc1ccc(-c2cn3ccccc3n2)cc1`, the AC50 under setting [2] was 15.8 µM [falling, single point].
On to `COC(=O)C1=C(C)Nc2nnnn2C1c1cccnc1` (centres undefined), for which the concentration at half-maximal activity (AC50) under setting [2] was 3.66 µM [rising, single point].
`O=C1CC(N2CCOCC2)C(=O)N1c1cc(Cl)cc(Cl)c1` (centres undefined): under setting [2], the AC50 was 11.2 µM [falling, partial curve, poor fit].
Still for that read-out and setting: then `COc1ccccc1NC(=O)CCCc1c[nH]c2ccccc12`, with 8.2 µM [falling, partial curve, poor fit].
Still for that read-out and setting: the value for `O=C(Nc1sc2c(c1C(=O)O)CCC2)c1cccs1` was 2 µM [falling, full curve, poor fit].
Still for that read-out and setting: the value for `COCCn1c(SCC(=O)Nc2ccccc2C)nc2c(oc3ccccc32)c1=O` was 4.61 µM [rising, full curve, poor fit].
Consider `O=C(NN=C1CCCC1)c1cc(O)cc(O)c1`, for which, under setting [2], the AC50 is 14.1 µM [falling, partial curve, poor fit].
As to `COC(=O)/C=C/C(=O)N1CCN(c2ccccc2)CC1`, under setting [2], the AC50 is 23.1 µM [falling, partial curve, poor fit].
For `COc1ccc(/C=N\n2nnc3ccccc32)cc1`, under setting [2], the AC50 is 9.2 µM [falling, partial curve, poor fit].
Same read-out and setting: then `COC(=O)c1cccc(C(=O)Nc2ccc(C)cc2)n1`, with 12.6 µM [falling, partial curve].
Same read-out and setting: then `CC(=C/C(=O)O)/C=C/c1ccc(Cl)o1`, with 0.0058 µM [rising, full curve, poor fit].
Still for that read-out and setting: then `CCOC(=O)c1cc2c(ccn2C)n1CC(=O)N1CCN(c2ccccc2OC)CC1`, with 12.6 µM [rising, single point].
On to `COc1ccc(NC(=O)c2cccc(N3C(=O)c4cccc([N+](=O)[O-])c4C3=O)c2)cc1`, for which the AC50 under setting [2] was 11.2 µM [falling, partial curve, poor fit].
The same measure, in the same setting: the value for `COC(=O)CNC(c1ccccc1Cl)c1cc(Br)ccc1NC(=O)CCN1CCOCC1` (centres undefined) was 10 µM [falling, partial curve]; that for `O=C(NCc1ccccc1)c1cccc(COc2ccc3c(c2)CCC3)c1` was 29.1 µM [falling, single point].
Same read-out and setting: then `COc1cccc(C(=O)Nc2cccc(NC(=O)c3cccs3)c2)c1`, with 8.91 µM [falling, partial curve, poor fit]; and `COc1cccc(C(=O)Nc2cccc(-c3ccccc3)c2)c1`, with 35.5 µM [falling, single point].
On the same count and under the same terms, then `CCS(=O)(=O)N(CC(=O)Nc1cccc2ccccc12)c1ccc(OC)cc1`, with 6.51 µM [rising, single point]; and `CCCCC(=O)NC1(C(F)(F)F)C(=O)Nc2c1c(=O)n(C)c(=O)n2C` (centres undefined), with 29.1 µM [falling, single point].
For the compound `CCc1cccc(NC(=O)COc2ccccc2)c1`, the AC50 under setting [2] is 2.59 µM [rising, partial curve, poor fit].
As for `CCn1cc(C(=O)N[C@@H](CCSC)C(=O)NCCO)c(=O)c2cc3c(cc21)OCO3`, the AC50 under setting [2] is 35.5 µM [rising, single point].
`CCOC(=O)c1c(NC(=O)COC(=O)CNC(=O)c2ccco2)sc(C)c1C`: the AC50 under setting [2] was 14.6 µM [rising, partial curve, poor fit].
